Where a name gives a salt, the structure may show the parent alone. The list shows a part of the results. Hit calls seldom repeat between salt and free forms of one compound.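 In K562 cells expressing nanoluciferase-fused kinases, luminescence was recorded at 4 h intervals between 2 and 18 h, normalized as percent of control with DMSO at 100% and a positive control at 0%. A significant (2 sigma) signal drop marks a time point as decreased. The authors' rule for a hit is not shown and takes in more than the number of time points.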
Experiments:
Assay in all cases: kinase-Nluc reporter destabilization hit call (1 = scored as downregulated) (binary); higher = compound decreases kinase abundance
Conditions in all cases: K562; 2-18 h
[1] = target: IRAK3 (UniProt Q9Y616)
[2] = target: JAK1 (UniProt P23458)
[3] = target: LIMK1 (UniProt P53667)
[4] = target: LIMK2 (UniProt P53671)
[5] = target: LMTK2 (UniProt Q8IWU2)
[6] = target: LYN (UniProt P07948)
[7] = target: MAP2K1 (UniProt Q02750)
[8] = target: MAP2K2 (UniProt P36507)
[9] = target: MAP4K2 (UniProt Q12851)
[10] = target: LCK (UniProt P06239)

Sequences of proteins named here, by UniProt entry; tags and fusion partners are left off. A change or cut given only in a name is not applied to a line headed by its entry.
UniProt Q9Y616: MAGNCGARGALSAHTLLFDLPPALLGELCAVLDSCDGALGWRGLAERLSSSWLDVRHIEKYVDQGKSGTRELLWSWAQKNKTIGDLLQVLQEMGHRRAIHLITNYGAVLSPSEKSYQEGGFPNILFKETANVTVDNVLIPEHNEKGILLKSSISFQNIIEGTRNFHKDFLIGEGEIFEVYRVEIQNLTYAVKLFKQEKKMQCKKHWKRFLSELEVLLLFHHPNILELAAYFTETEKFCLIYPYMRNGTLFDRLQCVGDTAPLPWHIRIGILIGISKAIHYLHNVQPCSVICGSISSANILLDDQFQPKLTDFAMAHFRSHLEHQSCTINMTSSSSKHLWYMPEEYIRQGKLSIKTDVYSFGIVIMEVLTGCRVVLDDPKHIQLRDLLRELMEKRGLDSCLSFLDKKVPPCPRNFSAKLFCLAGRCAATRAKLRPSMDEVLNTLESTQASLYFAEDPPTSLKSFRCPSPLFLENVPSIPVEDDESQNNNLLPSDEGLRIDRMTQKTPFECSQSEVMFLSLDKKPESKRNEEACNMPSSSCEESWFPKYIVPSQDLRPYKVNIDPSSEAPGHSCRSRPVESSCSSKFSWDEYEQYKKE
UniProt P23458: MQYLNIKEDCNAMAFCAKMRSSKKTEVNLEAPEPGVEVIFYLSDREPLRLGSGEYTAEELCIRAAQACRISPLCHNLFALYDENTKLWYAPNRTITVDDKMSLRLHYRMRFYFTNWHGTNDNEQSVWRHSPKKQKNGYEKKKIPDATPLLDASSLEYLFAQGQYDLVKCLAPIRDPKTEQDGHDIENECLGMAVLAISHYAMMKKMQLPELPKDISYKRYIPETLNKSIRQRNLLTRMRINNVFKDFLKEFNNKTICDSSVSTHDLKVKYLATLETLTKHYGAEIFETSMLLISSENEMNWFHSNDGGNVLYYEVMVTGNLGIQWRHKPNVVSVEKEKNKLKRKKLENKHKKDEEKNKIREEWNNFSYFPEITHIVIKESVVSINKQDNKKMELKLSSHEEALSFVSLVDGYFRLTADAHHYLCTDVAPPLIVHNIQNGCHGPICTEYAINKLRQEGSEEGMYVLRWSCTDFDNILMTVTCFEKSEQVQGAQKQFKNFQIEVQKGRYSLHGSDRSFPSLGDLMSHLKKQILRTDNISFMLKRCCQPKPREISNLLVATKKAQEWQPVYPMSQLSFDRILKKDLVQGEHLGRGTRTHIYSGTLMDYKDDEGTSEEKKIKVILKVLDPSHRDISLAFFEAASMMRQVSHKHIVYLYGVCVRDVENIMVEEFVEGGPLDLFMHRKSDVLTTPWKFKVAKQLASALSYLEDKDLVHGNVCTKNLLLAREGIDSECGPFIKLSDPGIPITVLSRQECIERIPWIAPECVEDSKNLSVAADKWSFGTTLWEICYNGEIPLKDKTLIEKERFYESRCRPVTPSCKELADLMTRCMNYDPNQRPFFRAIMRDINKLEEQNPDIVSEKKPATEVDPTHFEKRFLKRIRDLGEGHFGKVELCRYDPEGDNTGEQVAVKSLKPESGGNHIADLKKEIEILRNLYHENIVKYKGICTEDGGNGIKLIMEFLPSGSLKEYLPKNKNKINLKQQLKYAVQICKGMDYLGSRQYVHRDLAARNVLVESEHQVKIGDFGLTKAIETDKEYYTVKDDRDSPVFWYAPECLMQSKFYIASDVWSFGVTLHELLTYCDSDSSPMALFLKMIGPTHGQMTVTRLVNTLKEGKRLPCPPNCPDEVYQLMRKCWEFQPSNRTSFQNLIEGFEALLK
UniProt P53667: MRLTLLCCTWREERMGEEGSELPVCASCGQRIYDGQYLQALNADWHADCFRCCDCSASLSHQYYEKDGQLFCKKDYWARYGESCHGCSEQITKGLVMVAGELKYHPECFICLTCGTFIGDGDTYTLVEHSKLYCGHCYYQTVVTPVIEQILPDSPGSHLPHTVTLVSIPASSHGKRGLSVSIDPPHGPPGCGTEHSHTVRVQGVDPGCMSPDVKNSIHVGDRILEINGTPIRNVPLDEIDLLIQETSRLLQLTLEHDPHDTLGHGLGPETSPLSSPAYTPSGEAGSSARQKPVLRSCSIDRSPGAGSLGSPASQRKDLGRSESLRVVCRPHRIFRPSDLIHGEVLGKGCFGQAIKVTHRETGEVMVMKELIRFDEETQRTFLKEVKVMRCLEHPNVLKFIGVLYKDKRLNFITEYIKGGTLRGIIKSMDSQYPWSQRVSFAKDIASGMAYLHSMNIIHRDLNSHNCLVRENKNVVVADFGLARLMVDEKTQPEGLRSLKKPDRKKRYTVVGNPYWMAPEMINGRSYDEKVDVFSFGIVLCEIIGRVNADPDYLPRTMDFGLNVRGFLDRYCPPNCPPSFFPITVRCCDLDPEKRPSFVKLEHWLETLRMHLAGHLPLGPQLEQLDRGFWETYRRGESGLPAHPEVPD
UniProt P53671: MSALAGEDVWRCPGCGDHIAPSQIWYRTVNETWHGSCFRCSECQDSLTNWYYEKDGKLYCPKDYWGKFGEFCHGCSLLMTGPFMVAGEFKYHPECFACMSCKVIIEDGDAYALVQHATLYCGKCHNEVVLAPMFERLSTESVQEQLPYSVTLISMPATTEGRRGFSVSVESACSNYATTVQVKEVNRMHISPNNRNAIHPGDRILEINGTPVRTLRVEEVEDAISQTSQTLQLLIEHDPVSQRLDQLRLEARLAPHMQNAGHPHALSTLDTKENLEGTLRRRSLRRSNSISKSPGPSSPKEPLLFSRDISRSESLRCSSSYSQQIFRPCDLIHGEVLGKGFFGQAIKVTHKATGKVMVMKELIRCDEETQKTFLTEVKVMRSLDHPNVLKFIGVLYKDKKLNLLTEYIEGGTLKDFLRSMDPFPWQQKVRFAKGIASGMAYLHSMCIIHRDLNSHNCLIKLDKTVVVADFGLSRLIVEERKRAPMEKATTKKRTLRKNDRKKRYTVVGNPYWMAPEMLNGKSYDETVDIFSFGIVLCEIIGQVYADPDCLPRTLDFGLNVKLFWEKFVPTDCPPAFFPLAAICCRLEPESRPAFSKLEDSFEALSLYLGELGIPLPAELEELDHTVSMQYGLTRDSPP
UniProt Q8IWU2: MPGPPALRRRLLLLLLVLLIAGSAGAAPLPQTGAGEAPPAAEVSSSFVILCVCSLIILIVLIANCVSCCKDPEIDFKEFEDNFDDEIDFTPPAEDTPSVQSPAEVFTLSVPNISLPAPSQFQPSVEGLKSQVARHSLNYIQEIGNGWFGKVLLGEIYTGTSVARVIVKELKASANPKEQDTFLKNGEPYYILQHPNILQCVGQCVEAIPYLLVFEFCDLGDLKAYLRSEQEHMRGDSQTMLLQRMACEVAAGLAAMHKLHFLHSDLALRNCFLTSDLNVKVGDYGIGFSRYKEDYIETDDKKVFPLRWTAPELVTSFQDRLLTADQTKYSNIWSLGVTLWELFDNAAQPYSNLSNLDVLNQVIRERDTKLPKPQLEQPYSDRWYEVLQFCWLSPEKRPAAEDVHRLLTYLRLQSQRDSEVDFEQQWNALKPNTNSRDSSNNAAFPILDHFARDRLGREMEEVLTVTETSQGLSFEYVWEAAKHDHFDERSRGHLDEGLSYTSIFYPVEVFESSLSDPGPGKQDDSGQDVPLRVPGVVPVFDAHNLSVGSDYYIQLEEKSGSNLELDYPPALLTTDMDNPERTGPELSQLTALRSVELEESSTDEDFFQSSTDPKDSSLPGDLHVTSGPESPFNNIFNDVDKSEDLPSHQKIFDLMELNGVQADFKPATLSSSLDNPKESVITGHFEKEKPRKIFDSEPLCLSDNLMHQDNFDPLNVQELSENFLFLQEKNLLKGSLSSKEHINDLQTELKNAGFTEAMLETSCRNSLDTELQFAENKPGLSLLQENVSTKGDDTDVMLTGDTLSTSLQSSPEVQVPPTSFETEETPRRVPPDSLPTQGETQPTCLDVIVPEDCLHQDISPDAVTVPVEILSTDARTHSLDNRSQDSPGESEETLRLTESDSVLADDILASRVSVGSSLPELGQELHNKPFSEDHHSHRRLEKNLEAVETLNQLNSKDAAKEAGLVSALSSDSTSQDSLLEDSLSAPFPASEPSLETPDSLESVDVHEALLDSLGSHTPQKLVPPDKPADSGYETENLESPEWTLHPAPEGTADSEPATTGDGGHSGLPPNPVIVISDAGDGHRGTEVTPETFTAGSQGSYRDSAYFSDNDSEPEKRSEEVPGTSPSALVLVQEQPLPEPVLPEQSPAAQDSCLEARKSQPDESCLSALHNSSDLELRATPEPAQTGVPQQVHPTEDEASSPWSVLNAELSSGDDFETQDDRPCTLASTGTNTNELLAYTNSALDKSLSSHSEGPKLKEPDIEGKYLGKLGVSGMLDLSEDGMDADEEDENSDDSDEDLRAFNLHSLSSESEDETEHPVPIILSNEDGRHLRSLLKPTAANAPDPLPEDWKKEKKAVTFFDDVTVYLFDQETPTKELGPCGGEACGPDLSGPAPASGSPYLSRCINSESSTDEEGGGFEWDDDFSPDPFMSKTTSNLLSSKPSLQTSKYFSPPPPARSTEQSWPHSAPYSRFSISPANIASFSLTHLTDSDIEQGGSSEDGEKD
UniProt P07948: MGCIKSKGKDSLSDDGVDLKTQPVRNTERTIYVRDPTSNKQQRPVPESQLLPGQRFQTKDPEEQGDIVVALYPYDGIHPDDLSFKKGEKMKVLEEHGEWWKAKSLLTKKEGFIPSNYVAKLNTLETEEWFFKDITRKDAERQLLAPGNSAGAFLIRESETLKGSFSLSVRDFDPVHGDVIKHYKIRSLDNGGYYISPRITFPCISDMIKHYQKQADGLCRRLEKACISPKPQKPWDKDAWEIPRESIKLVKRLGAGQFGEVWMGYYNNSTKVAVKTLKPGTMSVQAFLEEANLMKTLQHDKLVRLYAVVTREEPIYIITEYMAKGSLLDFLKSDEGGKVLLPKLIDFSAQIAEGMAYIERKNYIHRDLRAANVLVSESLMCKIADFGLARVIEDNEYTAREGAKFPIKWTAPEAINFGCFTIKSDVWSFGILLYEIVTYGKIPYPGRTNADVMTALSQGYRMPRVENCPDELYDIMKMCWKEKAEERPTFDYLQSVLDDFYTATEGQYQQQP
UniProt Q12851: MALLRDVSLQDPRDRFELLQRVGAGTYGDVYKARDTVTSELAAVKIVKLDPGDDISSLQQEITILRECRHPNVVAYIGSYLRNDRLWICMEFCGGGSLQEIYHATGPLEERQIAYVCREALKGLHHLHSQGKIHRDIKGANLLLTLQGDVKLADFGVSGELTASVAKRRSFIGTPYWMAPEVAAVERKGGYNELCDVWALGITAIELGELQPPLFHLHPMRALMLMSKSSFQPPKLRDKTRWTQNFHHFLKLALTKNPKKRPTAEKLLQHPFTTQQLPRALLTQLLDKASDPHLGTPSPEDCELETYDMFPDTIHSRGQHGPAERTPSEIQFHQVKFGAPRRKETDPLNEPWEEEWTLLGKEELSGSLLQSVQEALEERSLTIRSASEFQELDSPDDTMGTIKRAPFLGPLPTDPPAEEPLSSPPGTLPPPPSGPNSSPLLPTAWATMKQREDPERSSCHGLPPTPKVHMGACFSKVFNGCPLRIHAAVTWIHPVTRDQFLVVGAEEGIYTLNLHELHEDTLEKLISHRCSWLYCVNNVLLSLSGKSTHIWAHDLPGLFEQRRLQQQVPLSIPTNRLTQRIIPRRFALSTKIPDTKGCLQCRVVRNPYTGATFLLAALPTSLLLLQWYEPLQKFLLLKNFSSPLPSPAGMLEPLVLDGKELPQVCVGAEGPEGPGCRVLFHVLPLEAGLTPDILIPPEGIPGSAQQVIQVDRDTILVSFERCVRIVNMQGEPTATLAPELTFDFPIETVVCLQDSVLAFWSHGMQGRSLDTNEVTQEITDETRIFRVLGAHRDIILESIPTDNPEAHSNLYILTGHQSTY
UniProt P06239: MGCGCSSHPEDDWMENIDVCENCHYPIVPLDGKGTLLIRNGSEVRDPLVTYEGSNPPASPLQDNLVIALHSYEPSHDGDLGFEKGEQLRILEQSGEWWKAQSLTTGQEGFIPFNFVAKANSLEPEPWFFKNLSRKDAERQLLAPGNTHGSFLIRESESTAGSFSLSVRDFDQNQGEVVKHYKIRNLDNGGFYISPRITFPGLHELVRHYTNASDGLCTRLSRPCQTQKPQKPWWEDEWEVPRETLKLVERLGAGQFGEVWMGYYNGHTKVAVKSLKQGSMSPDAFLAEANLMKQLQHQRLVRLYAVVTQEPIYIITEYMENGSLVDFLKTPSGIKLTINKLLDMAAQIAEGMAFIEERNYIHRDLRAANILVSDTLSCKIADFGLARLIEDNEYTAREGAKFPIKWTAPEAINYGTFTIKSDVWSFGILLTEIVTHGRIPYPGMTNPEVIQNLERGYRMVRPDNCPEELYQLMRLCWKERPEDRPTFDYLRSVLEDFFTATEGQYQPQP

Measured: kinase-Nluc reporter destabilization hit call

CNC(=O)c1ccccc1Nc1nc(Nc2ccc(N3CCOCC3)cc2OC)ncc1Cl (2.5 µM)
inactive: [1] 0 | [2] 0 | [3] 0 | [4] 0 | [5] 0 | [6] 0 | [7] 0 | [8] 0 | [9] 0

CN1CCN(c2ccc(C(=O)Nc3n[nH]c4ccc(Cc5cc(F)cc(F)c5)cc34)c(NC3CCOCC3)c2)CC1 [Entrectinib] (2.5 µM)
inactive: [1] 0 | [2] 0 | [3] 0 | [4] 0 | [5] 0 | [6] 0 | [7] 0 | [8] 0 | [9] 0

O=c1oc2c(O)c(O)cc3c(=O)oc4c(O)c(O)cc1c4c23 [Ellagic acid] (10 µM)
inactive: [1] 0 | [2] 0 | [10] 0 | [3] 0 | [4] 0 | [5] 0 | [6] 0 | [7] 0 | [8] 0 | [9] 0

Cn1c(=O)c(Oc2ccc(F)cc2F)cc2cnc(NC3CCOCC3)nc21 [R1487 (Hydrochloride)] (10 µM)
inactive: [1] 0 | [2] 0 | [3] 0 | [4] 0 | [5] 0 | [6] 0 | [7] 0 | [8] 0 | [9] 0

N#C/C(=C\c1ccc(O)c(O)c1)C(=O)NCCCc1ccccc1 (10 µM)
inactive: [1] 0 | [2] 0 | [10] 0 | [3] 0 | [4] 0 | [5] 0 | [6] 0 | [7] 0 | [8] 0 | [9] 0

CNc1nc(-c2ccc3c(N)n[nH]c3c2)cc(N2C[C@@H](C(=O)NC3CCCCC3)CC[C@H]2C)n1 (10 µM)
inactive: [1] 0 | [2] 0 | [10] 0 | [3] 0 | [4] 0 | [5] 0 | [6] 0 | [7] 0 | [8] 0 | [9] 0

Cc1cc(C(=O)Nc2cccc(C(=O)Nc3cccc(C(F)(F)F)c3)c2)on1 (10 µM)
inactive: [1] 0 | [2] 0 | [10] 0 | [5] 0 | [6] 0 | [7] 0 | [8] 0 | [9] 0

Oc1cc(O)cc(/C=C/c2ccc(O)c(O)c2)c1 [Piceatannol] (10 µM)
inactive: [1] 0 | [2] 0 | [3] 0 | [4] 0 | [5] 0 | [6] 0 | [7] 0 | [8] 0 | [9] 0

Cc1ccc(NC(=O)c2cccc(N(C)C)c2)cc1NC(=O)c1ccc(O)cc1 (10 µM)
inactive: [1] 0 | [2] 0 | [3] 0 | [4] 0 | [5] 0 | [6] 0 | [7] 0 | [8] 0 | [9] 0

COc1cc(Nc2ncc3c(n2)-c2ccc(Cl)cc2C(c2c(F)cccc2OC)=NC3)ccc1C(=O)O [Alisertib] (2.5 µM)
inactive: [1] 0 | [2] 0 | [3] 0 | [4] 0 | [5] 0 | [6] 0 | [7] 0 | [8] 0 | [9] 0

CC(C)C(=O)Nc1ncc(-c2cc(C(F)F)nn2-c2c(Cl)cccc2Cl)s1 (10 µM)
inactive: [1] 0 | [2] 0 | [10] 0 | [5] 0 | [6] 0 | [7] 0 | [8] 0 | [9] 0

CCn1cc(-c2ccnc3[nH]c(-c4cccc(CN(C)C)c4)cc23)c(-c2ccc(NC(=O)N(C)C)cc2)n1 (2.5 µM)
inactive: [1] 0 | [2] 0 | [10] 0 | [3] 0 | [4] 0 | [5] 0 | [6] 0 | [7] 0 | [8] 0 | [9] 0

Quoted at random: 2 records from the list.
COc1cc(Nc2ncc3c(n2)-c2ccc(Cl)cc2C(c2c(F)cccc2OC)=NC3)ccc1C(=O)O [Alisertib] (2.5 µM)
inactive: [1] 0 | [2] 0 | [3] 0 | [4] 0 | [5] 0 | [6] 0 | [7] 0 | [8] 0 | [9] 0

CC(C)C(=O)Nc1ncc(-c2cc(C(F)F)nn2-c2c(Cl)cccc2Cl)s1 (10 µM)
inactive: [1] 0 | [2] 0 | [10] 0 | [5] 0 | [6] 0 | [7] 0 | [8] 0 | [9] 0

More entries follow.

CCN(CC)CCCCNc1ncc2cc(-c3c(Cl)cccc3Cl)c(NC(=O)NC(C)(C)C)nc2n1 (2.5 µM)
inactive: [1] 0 | [2] 0 | [10] 0 | [3] 0 | [4] 0 | [5] 0 | [6] 0 | [7] 0 | [8] 0 | [9] 0

CC(C)(C)c1nc2c3cc[nH]c(=O)c3c3cc(F)ccc3c2[nH]1 [Pyridone 6] (10 µM)
inactive: [1] 0 | [2] 0 | [3] 0 | [4] 0 | [5] 0 | [6] 0 | [7] 0 | [8] 0 | [9] 0

CCN(CCO)CCCOc1ccc2c(Nc3cc(CC(=O)Nc4cccc(F)c4)[nH]n3)ncnc2c1 [Barasertib-HQPA] (10 µM)
inactive: [1] 0 | [2] 0 | [3] 0 | [4] 0 | [5] 0 | [6] 0 | [7] 0 | [8] 0 | [9] 0

Nc1ncnc2c1c(-c1ccc(Oc3ccccc3)cc1)cn2C1CCCC1 (2.5 µM)
inactive: [1] 0 | [2] 0 | [3] 0 | [4] 0 | [5] 0 | [6] 0 | [7] 0 | [8] 0 | [9] 0

N#CC(=Cc1ccc(O)c(O)c1)C(=O)NCc1ccccc1 (mixture of isomers) (10 µM)
inactive: [1] 0 | [2] 0 | [10] 0 | [3] 0 | [4] 0 | [5] 0 | [6] 0 | [7] 0 | [8] 0 | [9] 0

CN(C)C[C@@H]1CCn2cc(c3ccccc32)C2=C(C(=O)NC2=O)c2cn(c3ccccc23)CCO1 [Ruboxistaurin (hydrochloride)] (10 µM)
inactive: [1] 0 | [2] 0 | [3] 0 | [4] 0 | [5] 0 | [6] 0 | [7] 0 | [8] 0 | [9] 0

O=C(/C=C/c1ccc(O)c(O)c1)c1ccc(O)cc1O [Butein] (10 µM)
inactive: [1] 0 | [2] 0 | [10] 0 | [3] 0 | [4] 0 | [5] 0 | [6] 0 | [7] 0 | [8] 0 | [9] 0

COc1nccc(-c2c(-c3ccc(F)cc3)ncn2C2CCC(O)CC2)n1 (stereo not given) (10 µM)
inactive: [1] 0 | [2] 0 | [3] 0 | [4] 0 | [5] 0 | [6] 0 | [7] 0 | [8] 0 | [9] 0
